Test results as given in PMC9365700, “Architecture and self-assembly of the jumbo bacteriophage nuclear shell” (Nature, 2022).
No constants are given. Whether binding was seen depends on the method and setting. Some results given as binding are weak or reduced against the parent protein; the word gives no strength.

Legend:
[1] = target: 201phi2-1 chimallin ΔCTS1+2 (Δ583–631; residues 1–582) (bacteriophage 201phi2-1) (UniProt B3FIW8); test: SEC-MALS; 100 μl of protein at 2 mg ml^-1 on Superose 6 Increase 10/300 GL in buffer B (20 mM Tris pH 7.5, 250 mM NaCl, 2 mM β-mercaptoethanol); both purified
[2] = target: 201phi2-1 chimallin ΔNTS (Δ1–64; residues 65–631) (bacteriophage 201phi2-1) (UniProt B3FIW8); test: as above
[3] = target: 201phi2-1 chimallin (gp105), phage-encoded, in the nuclear shell of infected cells (bacteriophage 201phi2-1) (UniProt B3FIW8); test: cryo-EM structure; cryoFIB-ET and subtomogram averaging of the phage nuclear shell in infected cells (201phi2-1 in P. chlororaphis, 50–60 mpi; Goslar in E. coli APEC 2248, about 30 mpi)
[4] = target: Goslar chimallin (gp189), phage-encoded, in the nuclear shell of infected cells (bacteriophage Goslar); test: as above

For “201phi2-1 chimallin ΔCTS1+2 (Δ583–631; residues 1–582) (from UniProt B3FIW8 1-582) (domain or fragment)”, the binding [1] was “no binding (tested: 2 mg ml^-1)”.

“201phi2-1 chimallin ΔNTS (Δ1–64; residues 65–631) (from UniProt B3FIW8 65-631) (domain or fragment)” was tested, and the binding [2] was “no binding (tested: 2 mg ml^-1)”.

B1: 201phi2-1 chimallin (gp105), full length, recombinant (natural protein, bacteriophage 201phi2-1, UniProt B3FIW8 1-631, looked up)
chain: MIRDTATNTTQTQAAPQQAPAQQFTQAPQEKPMQSTQSQPTPSYAGTGGINSQFTRSGNVQGGDARASEALTVFTRLKEQAVAQQDLADDFSILRFDRDQHQVGWSSLVIAKQISLNGQPVIAVRPLILPNNSIELPKRKTNIVNGMQTDVIESDIDVGTVFSAQYFNRLSTYVQNTLGKPGAKVVLAGPFPIPADLVLKDSELQLRNLLIKSVNACDDILALHSGERPFTIAGLKGQQGETLAAKVDIRTQPLHDTVGNPIRADIVVTTQRVRRNGQQENEFYETDVKLNQVAMFTNLERTPQAQAQTLFPNQQQVATPAPWVASVVITDVRNADGIQANTPEMYWFALSNAFRSTHGHAWARPFLPMTGVAKDMKDIGALGWMSALRNRIDTKAANFDDAQFGQLMLSQVQPNPVFQIDLNRMGETAQMDSLQLDAAGGPNAQKAAATIIRQINNLGGGGFERFFDHTTQPILERTGQVIDLGNWFDGDEKRDRRDLDNLAALNAAEGNENEFWGFYGAQLNPNLHPDLRNRQSRNYDRQYLGSTVTYTGKAERCTYNAKFIEALDRYLAEAGLQITMDNTSVLNSGQRFMGNSVIGNNMVSGQAQVHSAYAGTQGFNTQYQTGPSSFY
notes: Cloned in UC Berkeley Macrolab vector 2-BT (Addgene #29666) with a TEV-cleavable His6 tag; tag removed before SEC; also called ChmA; FL; not shown: His6, N-terminal, cleaved
In the case of B1, the binding [3] is reported as “binds”.

B2: Goslar chimallin (gp189), full length, recombinant (natural protein, bacteriophage Goslar, UniProt A0A482GDX1 1-631, looked up)
chain: MGLDVRNNGNDNVEIRAAETRTAQRADEALETAADFAGQPKVTHTMRTINRTLSRRISRNTGSEQVLNLRRLMEKYLEDTRFKDDFIFVAVDPNQYSVPYPTLVVMSGAKVGDHNHFFGYVLPLVAGLAPLPRREEQGPHGNILVPRTWVDNLNGTFINEVMAAMYAAIGGKSNGTARIAGLAVVTNEITAESAHLATTLLSAADNAIQTAIEIRLGDKLGLPQFNLGMMASDQPISSVQYNTSGMQDSDIVGNPVRSDITVTISNRIRQAMSDYDSQQRLVATTGYIDLTYSPQNPTFNQGPVLVNGYPVPPTVQYQPRYVMTSAYPLELDAFTPNTFVLGLIGTIATLNSGMAWAQSLISNAARGIGPHNPGALAMVLDPEVTAPLDLSTQTNEQIYKFLQQVLYPSLLISIDVPEEGEYSWLLRMIPAAEKIYTGKVEGEVREISEGYKALYRAFDDVTLGCFSKKYQYGLPLVYATGNRIPLGHYNHQDGHRHDIRDMDDLYMMNITNPDTVEAWEDSFDRTDMTMSQRVVARHEIIDRVLSGSWEQTGWAMRYDFDPLALQALIEAAADAGFTIRPENIQHLAGTAVRGNMAARARGLGNISGNIYARSDRPNVGVNNMGGAFNLF
notes: Chimallin (gp189) of E. coli jumbo bacteriophage Goslar, 631 amino acids, NCBI YP_009820873.1; Cloned in UC Berkeley Macrolab vector 2-BT (Addgene #29666) with a TEV-cleavable His6 tag; tag removed before SEC; not shown: His6, N-terminal, cleaved
B2 was tested, and the binding [4] was “binds”.
